Data as given in PubChem BioAssay AID1671195 (Yale University, 2021).

Aim: 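Regulators of LDL receptor activity judged by labelled LDL uptake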 (primary screen)
Cells: human Huh7 hepatoma cells
Reagents: siRNA pool against human genes, 18 nM
Time to read-out: about 2 to 2.5 days of knockdown, then 8 h LDL uptake
Conditions: DiI-labelled LDL at 30 µg/ml for 8 h, in lipoprotein-deficient serum medium
Measured: 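Per-cell DiI-LDL intensity by automated imaging; well means scaled to the plate median and given as a robust z-score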
Reading the numbers: robust z-score: higher = more LDL uptake after knockdown
Call rule: 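a gene counts as active if at least two replicate z-scores exceed ±2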
Shown is an unselected part of about 22,000 deposited reagents. Over the whole deposit, about 1,510 (6.9%) were called active. 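Active includes knockdowns raising or lowering LDL uptake; positive z-scores mean more uptake, negative mean less.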 Reagent sequences are not shown.

gene	robust z-score, replicate 1	robust z-score, replicate 2	robust z-score, replicate 3	outcome
CT83 (cancer/testis antigen 83)	-0.512	-0.624	-0.675	inactive
LOC387939 (retired record)	0.181	0.0423	-0.305	inactive
LOC441059 (retired record)	0.528	0.386	0.0946	inactive
SPATA32 (spermatogenesis associated 32)	-0.691	-0.828	-0.531	inactive
F12 (coagulation factor XII)	0.0502	2.7	0.0316	inactive
LOC388337 (retired record)	2.39	2.27	2.2	active
INPPL1 (inositol polyphosphate phosphatase like 1)	-0.0698	0.655	0.0418	inactive
LILRB2 (leukocyte immunoglobulin like receptor B2)	-2.5	-2.24	-2.83	active
LOC400842 (retired record)	-0.121	-0.48	-0.591	inactive
RPL7P37 (ribosomal protein L7 pseudogene 37)	0.708	0.725	-0.075	inactive
RHBG (Rh family B glycoprotein)	0.633	-0.321	0.154	inactive
BMP5 (bone morphogenetic protein 5)	-0.532	-1.84	-0.17	inactive
LOC387816 (retired record)	1.42	0.965	1.02	inactive
ZNF818P (zinc finger protein 818, pseudogene)	-0.0848	0.00383	0.089	inactive
LINC00548 (long independently transcribed non-coding RNA 548)	-0.457	-0.0728	-0.492	inactive
ZNF346 (zinc finger protein 346)	-1.33	-1.26	-1.01	inactive
TMEM183A (transmembrane protein 183A)	1.89	1.03	1.1	inactive
PEX5L (peroxisomal biogenesis factor 5 like)	-1.96	-1.04	-0.188	inactive
LORICRIN (loricrin cornified envelope precursor protein)	0.0154	-0.191	-0.731	inactive
BASP1-AS1 (BASP1 antisense RNA 1)	-1.25	-0.723	-0.765	inactive
MEX3C (mex-3 RNA binding family member C)	1.08	-0.734	-0.222	inactive
TPTEP1 (TPTE pseudogene 1)	-2.09	-0.542	-1.72	inactive
GBP4 (guanylate binding protein 4)	-0.733	0.971	0.0243	inactive
TMLHE (trimethyllysine hydroxylase, epsilon)	1.99	1.3	1.95	inactive
ADGRA1 (adhesion G protein-coupled receptor A1)	0.196	1.77	0.46	inactive
XKR8 (XK related 8)	-0.345	0.973	-0.161	inactive
ERAL1 (Era like 12S mitochondrial rRNA chaperone 1)	-1.25	-1.1	-0.391	inactive
LOC442624 (retired record)	0.726	0.193	-0.8	inactive
OR52K1 (olfactory receptor family 52 subfamily K member 1)	0.0653	0.041	-0.152	inactive
AMBN (ameloblastin)	-0.587	-1.53	-1.58	inactive
LOC387887 (retired record)	-0.476	-0.496	-0.546	inactive
CIMIP1 (ciliary microtubule inner protein 1)	-0.163	-0.694	-0.426	inactive
KRTAP6-2 (keratin associated protein 6-2)	0.725	0.476	0.67	inactive
IRGC (immunity related GTPase cinema)	-1.9	-1.92	-1.52	inactive

Next part; the last 4 above are carried over.
gene	robust z-score, replicate 1	robust z-score, replicate 2	robust z-score, replicate 3	outcome
LOC387887 (retired record)	-0.476	-0.496	-0.546	inactive
CIMIP1 (ciliary microtubule inner protein 1)	-0.163	-0.694	-0.426	inactive
KRTAP6-2 (keratin associated protein 6-2)	0.725	0.476	0.67	inactive
IRGC (immunity related GTPase cinema)	-1.9	-1.92	-1.52	inactive
CBR3 (carbonyl reductase 3)	0.0159	-0.0133	-0.0479	inactive
UBE2W (ubiquitin conjugating enzyme E2 W)	1.24	0.445	1.43	inactive
COMMD8 (COMM domain containing 8)	1.97	3.62	2.78	active
CCDC69 (coiled-coil domain containing 69)	0.391	1.68	0.0125	inactive
LOC441580 (retired record)	1.22	0.148	0.289	inactive
LOC439952 (retired record)	-0.76	-0.539	-0.974	inactive
LOC442261 (retired record)	0.213	-0.277	0.38	inactive
RIC3 (RIC3 acetylcholine receptor chaperone)	-0.515	-1.02	-0.406	inactive
GADD45G (growth arrest and DNA damage inducible gamma)	0.0978	-0.0454	-0.804	inactive
SPATA45 (spermatogenesis associated 45)	1.5	-0.376	1.21	inactive
POLR1HASP (POLR1H antisense, pseudogene)	0.583	0.847	1.62	inactive
LOC389178 (retired record)	1.06	0.741	0.434	inactive
ARFGAP2 (ARF GTPase activating protein 2)	0.277	0.405	0.37	inactive
PPIAP28 (peptidylprolyl isomerase A pseudogene 28)	1.87	1.27	0.833	inactive
NR2F1 (nuclear receptor subfamily 2 group F member 1)	0.433	-0.411	0.357	inactive
SIX4 (SIX homeobox 4)	-0.739	-0.528	-0.296	inactive
EFS (embryonal Fyn-associated substrate)	2.55	2.32	1.79	active
ARC (activity regulated cytoskeleton associated protein)	-1.2	-0.998	-1.32	inactive
LOC389228 (retired record)	-0.265	-0.0774	0.0372	inactive
LOC441069 (retired record)	0.665	1.67	1.48	inactive
TMIGD1 (transmembrane and immunoglobulin domain containing 1)	0.928	0.901	0.687	inactive
LOC388476 (retired record)	-0.75	-0.998	-0.989	inactive
FKBP6P2 (FKBP6 pseudogene 2)	-1.15	-1.19	-1.22	inactive
WNT6 (Wnt family member 6)	-0.895	0.529	-1.49	inactive
RAPH1	0.155	0.339	0.277	inactive
TSEN2 (tRNA splicing endonuclease subunit 2)	-0.448	-0.115	-0.412	inactive
GJB7 (gap junction protein beta 7)	0.606	0.546	0.941	inactive
HCRT (hypocretin neuropeptide precursor)	3.15	2.42	2.96	active
C15orf45	-0.789	-1.11	-1.08	inactive
AGBL2 (AGBL carboxypeptidase 2)	-1.38	-0.896	-0.827	inactive
TBL1Y (transducin beta like 1 Y-linked)	0.0761	-0.202	-0.327	inactive
TTI2 (TELO2 interacting protein 2)	0.095	-0.11	0.315	inactive
LOC392176 (retired record)	-0.131	-0.246	0.00677	inactive
SYDE1 (synapse defective Rho GTPase activating protein 1)	0.0158	-0.342	0.233	inactive
